Cell number change and AC50 data for 58 compounds are collected here from PubChem BioAssay AID2685 (National Center for Advancing Translational Sciences (NCATS), 2010).

By AC50 is commonly meant the concentration giving half of the maximal activity seen. A low value points to greater potency.

The nature of this assay: qHTS Assay for Lipid Storage Modulators in Drosophila S3 Cells.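 As to Cell number change: cells counted by Cell Tracker Red CMTPX staining in the red channel.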 Conditions: BODIPY lipid droplet fluorescence, 18-24 h; for cell number change: measured here: cell count max response, cells fed with added oleic acid. In a few lines: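 Laser-scanning cytometry quantifies lipid droplet accumulation (500–530 nm total intensity; droplet/cell object ratio) in oleic acid-fed (400 uM added) Drosophila S3 cells treated with a concentration series. 20 uM Triacsin C defined 100% inhibition.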

The mark [1] stands for this setting: measured here: lipid fluorescence (Fed channel) AC50, cells fed with added oleic acid.
The mark [2] stands for this setting: measured here: cell number channel AC50, cells fed with added oleic acid.

The other results are listed elsewhere or left out. The main result of the screen is listed elsewhere. These columns were measured beside it and carry no call. Compounds called inactive in the main read-out are mostly missing here. The note in brackets gives the kind of curve behind each potency; many fits are weak.

As for `O=C(CCCCCn1c(=S)[nH]c2cc3c(cc2c1=O)OCO3)N1CCN(C2CCCCC2)CC1`, the cell number change was -6.98%.
For `O=C(NCCc1ccccc1)C1CCN(S(=O)(=O)c2ccc(Br)s2)CC1`, the AC50 under setting [1] was 11.6 µM [rising, single point].
As for `Cc1ccc(NC(=O)CSc2ccccc2)cc1S(=O)(=O)N1CCOCC1`, the cell number change was -50%. Also, the AC50 under setting [1] is 0.731 µM [falling, single point].
`O=C(N/N=C/c1cc(Cl)cc([N+](=O)[O-])c1O)NC12CC3CC(CC(C3)C1)C2`: the cell number change was -31%. Moreover, under setting [2], the AC50 is 32.6 µM [falling, single point]. Also, under setting [1], the AC50 was 2.91 µM [falling, partial curve, poor fit].
On to `C[C@@H]1CCC(=O)N(CC[C@H](N=[N+]=[N-])c2ccccc2)CC1`, for which the cell number change is 12.6%. Besides, the AC50 under setting [1] was 29.1 µM [falling, single point].
On to `CCOc1ccccc1NC(=O)C1CCCN(S(=O)(=O)c2ccccc2)C1` (configuration not stated), for which the cell number change was -14.6%. Also, the AC50 under setting [1] was 16.4 µM [falling, single point].
Consider `COc1ccc(S(=O)(=O)N(Cc2nc3ccccc3c(=O)[nH]2)C2CCCC2)cc1`, for which the cell number change was 1.44%. Under setting [1], the AC50 is 5.8 µM [rising, partial curve].
As to `COc1cc2cc(C(=O)NCCc3ccccc3)[nH]c2cc1OC`, the cell number change is 45.4%. Also, the half-maximal activity concentration (AC50) under setting [2] is 4.61 µM [rising, single point].
In the case of `CCOC(=O)c1ccccc1NC(=O)c1c(F)c(F)c(F)c(F)c1F`, the cell number change is -34.2%. The AC50 under setting [2] was 29.1 µM [falling, single point]. The AC50 under setting [1] was 29.1 µM [falling, single point].
Turning to `Cc1ccc2c(CN3CC(C)CC(C)C3)cc(=O)oc2c1C` (configuration not stated), the cell number change was determined as 104%. In addition, the AC50 under setting [2] was 20.6 µM [rising, partial curve]. In addition, the AC50 under setting [1] was 29.1 µM [rising, single point].
Consider `Cc1ccc(S(=O)(=O)N2CCC[C@H]2C(=O)OCCN2C(=O)c3ccccc3C2=O)cc1`, for which the cell number change was -8%.
In the case of `Cc1cc(OCC(=O)NN2C(=O)c3ccccc3C2=O)ccc1Cl`, the cell number change amounted to 46.7%. Besides, under setting [2], the AC50 was 2.06 µM [rising, full curve, poor fit].
`CC1CCCCN1C(=O)COC(=O)c1cc(-c2cccs2)nn1-c1ccccc1` (configuration not stated): the cell number change was -4.48%. In addition, under setting [1], the AC50 was 6.51 µM [rising, full curve].
`CCN(CC)c1ccc(C=Nc2ccc(OC)c(S(=O)(=O)N3CCOCC3)c2)c(O)c1`: the cell number change was -8.94%.
In the case of `COc1ccccc1NC(=O)c1cc2cc(Br)ccc2cc1O`, the cell number change was -49.5%. Further, the AC50 under setting [2] is 29.1 µM [falling, single point].
As for `Nc1nc(N2CCOCC2)nc2ccccc12`, the cell number change was found to be 32.5%. Besides, the AC50 under setting [2] is 9.2 µM [rising, partial curve].
Take `OC12CCCCC1C(c1ccc3c(c1)OCO3)N(Cc1cccc(F)c1)CC2` (configuration not stated): the cell number change was -30%. Further, the AC50 under setting [2] is 0.731 µM [falling, full curve, poor fit]. Moreover, the AC50 under setting [1] was 0.651 µM [falling, full curve, poor fit].
As to `Cc1cccc(C)c1NC(=O)C(=O)NCC1CCCN1S(=O)(=O)c1cccs1` (configuration not stated), the AC50 under setting [1] is 8.2 µM [rising, partial curve].
With `Cn1c(SCC(=O)N2CCCC2)nnc1-c1cccs1`, the cell number change stood at 8.7%. In addition, the AC50 under setting [1] is 29.1 µM [rising, single point].
Take `CCC1CSC(Nc2ccc(C(=O)/C=C/c3ccc(Oc4ccccc4)cc3)cc2)=N1` (configuration not stated): the cell number change was 50%. Further, the AC50 under setting [2] was 6.51 µM [rising, partial curve, poor fit]. Moreover, the AC50 under setting [1] is 29.1 µM [falling, partial curve, poor fit].
As to `N#C/C(=C/c1ccc(-c2ccc(S(N)(=O)=O)cc2)o1)C(=O)Nc1ccccc1`, the cell number change was -33.5%. For the same compound, the AC50 under setting [2] was 23.1 µM [falling, single point].
In the case of `O=C(NCCCN1CCOCC1)c1cc(-c2ccc(Cl)c(Cl)c2)on1`, the cell number change is -11.9%. In addition, the AC50 under setting [1] is 29.1 µM [rising, single point].
For the compound `CC(C)C(NS(=O)(=O)c1ccccc1)C(=O)N1CCN(C(=O)c2ccco2)CC1` (configuration not stated), the cell number change was -12.5%. In addition, the AC50 under setting [1] is 29.1 µM [rising, single point].
On to `CC(=O)Nc1ccc(NC(=O)CC2(CC(=O)N3CCOCC3)CCCC2)cc1`, for which the cell number change is -5.76%. The AC50 under setting [1] was 0.00517 µM [rising, full curve, poor fit].
As for `Cc1ccc(SCc2nc3ncccn3c2Br)cc1`, the cell number change was 36.7%. Moreover, under setting [2], the AC50 was 5.8 µM [rising, full curve, poor fit]. The AC50 under setting [1] was 3.66 µM [rising, full curve, poor fit].
Take `O=C(NCCc1ccccn1)c1ccc(OC2CCN(Cc3ccccn3)CC2)cc1`: the cell number change worked out at 25.5%.
With `O=C(OC(C(=O)NCC1CCCO1)c1ccc(F)cc1)c1ccco1` (configuration not stated), the cell number change was -2.08%. Besides, the AC50 under setting [1] is 0.00651 µM [falling, full curve].
As to `Cc1nc2nc(SCc3ccccc3)nn2c(C)c1C`, the cell number change is -21.2%. Further, the AC50 under setting [1] was 2.91 µM [rising, partial curve, poor fit].
As to `COC1CCN(Cc2c(C(=O)N3C[C@@H](C)O[C@@H](C)C3)nc3ccc(Cl)cn23)CC1`, the cell number change was -27.4%. For the same compound, under setting [1], the AC50 is 20.6 µM [falling, partial curve, poor fit].
Regarding `CNC(=O)/C(=C\c1ccc([N+](=O)[O-])cc1)NC(C)=O`, the cell number change is -26.8%. Besides, the AC50 under setting [1] is 0.0058 µM [falling, full curve, poor fit].
As for `Cc1[nH]c2ccccc2c1N=Nc1cccc(C(=O)O)c1`, the cell number change was 12.1%. Besides, the AC50 under setting [1] is 6.51 µM [rising, partial curve].
For `Cn1c(SCC(=O)N2c3ccccc3Sc3ccccc32)nc2ccccc21`, the cell number change was determined as 2.7%. Besides, the AC50 under setting [2] was 6.51 µM [rising, single point]. For the same compound, under setting [1], the AC50 is 0.58 µM [falling, partial curve].
In the case of `Cc1cc(C)cc(OCC(=O)Nc2cccc(S(=O)(=O)NC3=NCCC3)c2)c1`, the cell number change was 22.8%. The AC50 under setting [2] was 7.31 µM [rising, partial curve, poor fit]. In addition, the AC50 under setting [1] was 0.291 µM [rising, full curve, poor fit].
Regarding `Cc1ccc(N(C(=O)Cn2nnc3ccccc32)C(C(=O)NC2CCCCC2)c2cn(C)nc2C)cc1` (configuration not stated), the cell number change is 0.326%. The AC50 under setting [1] is 20.6 µM [rising, single point].
Consider `NC(=O)N1CCCC1C(=O)Nc1ccc(Cl)c(Cl)c1` (configuration not stated), for which the cell number change came to 23.8%. In addition, the AC50 under setting [1] was 20.6 µM [falling, partial curve].
Take `CC1(C)CC(CC(=O)O)(c2ccccc2)CCO1` (configuration not stated): the cell number change was -8.81%. Besides, under setting [1], the AC50 is 29.1 µM [falling, single point].
On to `CCN(CC)CCCNc1nc2cc(OC)c(OC)cc2c2nc(-c3ccccc3)nn12`, for which the cell number change is -28.6%. Also, the half-maximal activity concentration (AC50) under setting [1] was 29.1 µM [falling, single point].
With `Cc1cc(C)cc(Nc2cc(=O)n(C3CCCCC3)c(=O)[nH]2)c1`, the cell number change is -13.1%. Also, the AC50 under setting [1] is 6.51 µM [falling, single point].
As to `O=C(CSc1nnnn1-c1ccc(F)cc1)NC1CCCCC1`, the cell number change was -5.73%. Further, the AC50 under setting [1] was 0.0164 µM [falling, full curve, poor fit].
Consider `CC(C)Cn1c(N)c(C(=O)COC(=O)CCNS(=O)(=O)c2ccccc2)c(=O)n(C)c1=O`, for which, under setting [2], the AC50 is 6.51 µM [rising, single point].
On to `CCCC(=O)Nc1cc2c(cc1C(=O)c1ccccc1)OCCO2`, for which the cell number change was 13.7%. In addition, the AC50 under setting [1] was 6.51 µM [rising, partial curve].
Consider `O=C(COC(=O)c1ccc(Cl)c(Cl)c1)Nc1cccnc1Cl`, for which the cell number change was 3.26%. Besides, under setting [1], the AC50 was 20.6 µM [rising, single point].
Take `O=C(NC1CCCCCC1)c1c(O)c2cccc3c2n(c1=O)CCC3`: the cell number change is 25.6%. Moreover, the AC50 under setting [1] was 16.4 µM [rising, partial curve, poor fit].
For the compound `Cc1ccc2nc(C)cc(Nc3ccc4c(c3)OCCO4)c2c1`, the cell number change came to 6.3%. In addition, the AC50 under setting [1] was 0.00517 µM [rising, full curve, poor fit].
As for `c1ccc(COc2cccc(CN3CCN(c4ccccn4)CC3)c2)cc1`, the cell number change was -25.1%. For the same compound, the AC50 under setting [1] was 9.2 µM [falling, partial curve, poor fit].
`CC(C)(O)CNC(=O)Nc1ccc(Cl)c(Cl)c1`: the cell number change was determined as 27.7%. In addition, the AC50 under setting [2] is 1.3 µM [rising, partial curve]. Also, the AC50 under setting [1] was 2.31 µM [rising, partial curve].
Turning to `COc1ccc(CCN(C)C2CCCN(C(=O)CCSC)C2)cc1OC` (configuration not stated), the cell number change was determined as 19.9%.
Same read-out and setting: next, `COc1cc(/C=N/N(C)c2ccccc2)cc(Cl)c1O`: -21.6%.
Regarding `O=C(c1ccc(-n2nc(C(F)(F)F)c3c2CCCC3)cc1)N1CCOCC1`, the cell number change came out at 5.43%. Moreover, the AC50 under setting [1] is 0.731 µM [rising, full curve].
As for `Cc1cccc(NS(=O)(=O)c2nnc(NC(=O)c3ccc(Cl)cc3)s2)c1`, the cell number change is -4.79%. Further, the AC50 under setting [1] was 0.00517 µM [falling, full curve, poor fit].
Take `CCOC(=O)c1c(C)[nH]c(C(=O)OCC(=O)NC2(C#N)CCCCC2)c1C`: the AC50 under setting [1] was 0.00411 µM [falling, full curve, poor fit].
As for `Cc1c(Cl)cccc1NC(=O)Nc1ccc(C(=O)N2CCCC2)cc1`, the cell number change was determined as 14.6%. In addition, under setting [2], the AC50 was 0.058 µM [rising, full curve, poor fit].
Take `Cc1ccccc1NC(=O)Nc1ccc2c(c1)CCC2`: the cell number change is 13.9%. For the same compound, the half-maximal activity concentration (AC50) under setting [1] is 29.1 µM [rising, single point].
`Cc1ccsc1C(=O)NCCc1ccco1`: the cell number change amounted to 18.1%. Also, under setting [1], the AC50 was 1.03 µM [rising, partial curve].
On to `O=S(=O)(c1ccc2ccccc2c1)N1CCN(S(=O)(=O)N2CCCCC2)CC1`, for which the cell number change was -14.9%. The AC50 under setting [1] is 1.03 µM [falling, full curve].
Take `CNC(=S)NNC(=O)c1ccc2c(c1)OCO2`: the cell number change amounted to 126%. In addition, the AC50 under setting [2] is 29.1 µM [rising, partial curve]. Besides, the AC50 under setting [1] was 20.6 µM [rising, partial curve].
As to `CCc1ccc2c(c1)/C(=N/N(C)C(=S)NC)C(=O)N2`, the cell number change is -34.9%. Moreover, under setting [2], the AC50 is 0.0184 µM [falling, full curve]. For the same compound, the AC50 under setting [1] was 0.461 µM [falling, full curve].
As for `Cc1ccc(S(=O)(=O)N2CCCC(C(=O)NC3CC3)C2)cc1` (configuration not stated), the cell number change turned out to be 7.14%. The AC50 under setting [1] is 29.1 µM [rising, single point].
